Laboratory results: patent US20130197189A1 (The Regents of the University of Colorado, A Body Corporate, priority 2010, published 2013)

Test: general procedure: Fmoc solid-phase peptide synthesis; Rink Amide MBHA resin (~0.5 mmol/g); HBTU/NMM
Details: whole synthesis, scale of the general procedure 0.50 mmol, 0.25-0.5 mmol

Question: With H-CGGRGDS-NH2 as the substance, how does the isolated yield read?
Answer: The isolated yield was 82%.
